Laboratory results: PubChem BioAssay AID1224830 (NIAID, 2016)

Purpose: 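Host factors that control LPS-induced TNF expression in human macrophages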 (primary screen)
System: human THP-1 monocytic leukaemia cells, TNF dual-luciferase reporter clone, PMA-differentiated to macrophage-like cells
Knock-down reagent: siRNA pool against human genes, 50 nM
Time to read-out: LPS for 4 h, given about 3 days after siRNA transfection
Conditions: bacterial LPS (TLR4 ligand), 10 ng/ml
Measured: 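TNF firefly reporter luminescence divided by renilla, normalised to the plate median, then turned into a robust z-score for each replicate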
Reading the numbers: TNF reporter robust z-score: higher = stronger TNF reporter response to LPS
Rule for the call: 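a well is active when its z-score exceeds 2.8 or falls below -1.5; control wells carry no call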
The deposit covers about 18,000 reagents; shown is a random part of them. About 2,900 of them (16%) count as active. 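Calls are made per well; low scores hint the gene aids the LPS response, high scores that it dampens it.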 Repeated entries: four replicate wells of each siRNA pool.

With CT45A6 (cancer/testis antigen family 45 member A6), what does the deposit list?
TNF reporter robust z-score: -0.06; call: inactive

How did the screen score CT45A6 (cancer/testis antigen family 45 member A6)?
TNF reporter robust z-score: 1.18; call: inactive

How did the screen score CT45A6 (cancer/testis antigen family 45 member A6)?
TNF reporter robust z-score: 0.59; call: inactive

Which result is listed for CT45A6 (cancer/testis antigen family 45 member A6)?
TNF reporter robust z-score: 1.76; call: inactive

With LRRC37B (leucine rich repeat containing 37B), what does the deposit list?
TNF reporter robust z-score: -0.01; call: inactive

How did the screen score LRRC37B (leucine rich repeat containing 37B)?
TNF reporter robust z-score: 0.68; call: inactive

What did the screen give for LRRC37B (leucine rich repeat containing 37B)?
TNF reporter robust z-score: 0.53; call: inactive

Which result is listed for LRRC37B (leucine rich repeat containing 37B)?
TNF reporter robust z-score: 2.03; call: inactive

Which result is listed for ARSK (arylsulfatase family member K)?
TNF reporter robust z-score: 1.27; call: inactive

How did the screen score ARSK (arylsulfatase family member K)?
TNF reporter robust z-score: 1.46; call: inactive

What is on record for ARSK (arylsulfatase family member K)?
TNF reporter robust z-score: 1.72; call: inactive

What did the screen give for ARSK (arylsulfatase family member K)?
TNF reporter robust z-score: 1.74; call: inactive

With LCE2A (late cornified envelope 2A), what does the deposit list?
TNF reporter robust z-score: -0.74; call: inactive

With LCE2A (late cornified envelope 2A), how do the results read?
TNF reporter robust z-score: -1.33; call: inactive

For LCE2A (late cornified envelope 2A), what does the deposit list?
TNF reporter robust z-score: -1.1; call: inactive

What did the screen give for LCE2A (late cornified envelope 2A)?
TNF reporter robust z-score: -1.44; call: inactive

What is on record for ELAPOR1?
TNF reporter robust z-score: 0.44; call: inactive

How did the screen score ELAPOR1?
TNF reporter robust z-score: 0.99; call: inactive

With ELAPOR1, what was measured?
TNF reporter robust z-score: 0.94; call: inactive

What did the screen give for ELAPOR1?
TNF reporter robust z-score: 0.58; call: inactive

Which result is listed for HYDIN (HYDIN axonemal central pair apparatus protein)?
TNF reporter robust z-score: 0.38; call: inactive

For HYDIN (HYDIN axonemal central pair apparatus protein), what was measured?
TNF reporter robust z-score: 0.99; call: inactive

For HYDIN (HYDIN axonemal central pair apparatus protein), what does the deposit list?
TNF reporter robust z-score: 0.32; call: inactive

With HYDIN (HYDIN axonemal central pair apparatus protein), how do the results read?
TNF reporter robust z-score: 0.18; call: inactive

What is on record for DPH7 (diphthamide biosynthesis 7)?
TNF reporter robust z-score: -0.29; call: inactive

Which result is listed for DPH7 (diphthamide biosynthesis 7)?
TNF reporter robust z-score: 0.35; call: inactive

With DPH7 (diphthamide biosynthesis 7), what was measured?
TNF reporter robust z-score: 0.22; call: inactive

With DPH7 (diphthamide biosynthesis 7), what was measured?
TNF reporter robust z-score: 0.24; call: inactive

With LIPF (lipase F, gastric type), what was measured?
TNF reporter robust z-score: 0.31; call: inactive

For LIPF (lipase F, gastric type), what was measured?
TNF reporter robust z-score: -0.27; call: inactive

With LIPF (lipase F, gastric type), how do the results read?
TNF reporter robust z-score: -0.08; call: inactive

For LIPF (lipase F, gastric type), what does the deposit list?
TNF reporter robust z-score: 2.68; call: inactive

For EEPD1, what does the deposit list?
TNF reporter robust z-score: 0.08; call: inactive

What did the screen give for EEPD1?
TNF reporter robust z-score: 1.3; call: inactive

With EEPD1, what was measured?
TNF reporter robust z-score: 0.67; call: inactive

With EEPD1, how do the results read?
TNF reporter robust z-score: 0.14; call: inactive

Sorted by “TNF reporter robust z-score” (low to high): some entries from above.
LCE2A (late cornified envelope 2A) → TNF reporter robust z-score = -1.33; call = inactive
LCE2A (late cornified envelope 2A) → TNF reporter robust z-score = -1.1; call = inactive
LCE2A (late cornified envelope 2A) → TNF reporter robust z-score = -0.74; call = inactive
ARSK (arylsulfatase family member K) → TNF reporter robust z-score = 1.27; call = inactive
ARSK (arylsulfatase family member K) → TNF reporter robust z-score = 1.46; call = inactive
ARSK (arylsulfatase family member K) → TNF reporter robust z-score = 1.72; call = inactive
ARSK (arylsulfatase family member K) → TNF reporter robust z-score = 1.74; call = inactive
LRRC37B (leucine rich repeat containing 37B) → TNF reporter robust z-score = 2.03; call = inactive

Next entries:
With CRK (CRK proto-oncogene, adaptor protein), how do the results read?
TNF reporter robust z-score: 2.34; call: inactive

How did the screen score CRK (CRK proto-oncogene, adaptor protein)?
TNF reporter robust z-score: 0.8; call: inactive

How did the screen score CRK (CRK proto-oncogene, adaptor protein)?
TNF reporter robust z-score: 1.72; call: inactive

What is on record for CRK (CRK proto-oncogene, adaptor protein)?
TNF reporter robust z-score: -0.21; call: inactive

With CCDC87 (coiled-coil domain containing 87), how do the results read?
TNF reporter robust z-score: 1.11; call: inactive

For CCDC87 (coiled-coil domain containing 87), what does the deposit list?
TNF reporter robust z-score: 0.5; call: inactive

What did the screen give for CCDC87 (coiled-coil domain containing 87)?
TNF reporter robust z-score: -0.1; call: inactive

What did the screen give for CCDC87 (coiled-coil domain containing 87)?
TNF reporter robust z-score: 1.22; call: inactive

For RBP5 (retinol binding protein 5), what was measured?
TNF reporter robust z-score: 0.97; call: inactive

How did the screen score RBP5 (retinol binding protein 5)?
TNF reporter robust z-score: 0.2; call: inactive

For RBP5 (retinol binding protein 5), what does the deposit list?
TNF reporter robust z-score: -1.05; call: inactive

With RBP5 (retinol binding protein 5), what does the deposit list?
TNF reporter robust z-score: -0.7; call: inactive

With SYT9 (synaptotagmin 9), how do the results read?
TNF reporter robust z-score: -0.21; call: inactive

What did the screen give for SYT9 (synaptotagmin 9)?
TNF reporter robust z-score: 0.05; call: inactive

How did the screen score SYT9 (synaptotagmin 9)?
TNF reporter robust z-score: -1.33; call: inactive

What is on record for SYT9 (synaptotagmin 9)?
TNF reporter robust z-score: 0.09; call: inactive

How did the screen score CIART (circadian associated repressor of transcription)?
TNF reporter robust z-score: -0.26; call: inactive

What is on record for CIART (circadian associated repressor of transcription)?
TNF reporter robust z-score: -0.31; call: inactive

For CIART (circadian associated repressor of transcription), how do the results read?
TNF reporter robust z-score: -0.57; call: inactive

What did the screen give for CIART (circadian associated repressor of transcription)?
TNF reporter robust z-score: -0.71; call: inactive

What is on record for GYG2 (glycogenin 2)?
TNF reporter robust z-score: -0.16; call: inactive

For GYG2 (glycogenin 2), what was measured?
TNF reporter robust z-score: -0.89; call: inactive

What did the screen give for GYG2 (glycogenin 2)?
TNF reporter robust z-score: -0.27; call: inactive

With GYG2 (glycogenin 2), how do the results read?
TNF reporter robust z-score: 1.16; call: inactive
